Data: the supplement of paper PMC10331698
± gives the standard deviation of the averaged measurements. Small differences around the control level are noise.

Key:
Assay in all cases: level (log10 ratio to DMSO vehicle control); higher = higher biomarker level / cell amount than vehicle control
[1] = compound: C=CC(=O)OCC(F)(F)C(F)(F)C(F)(F)COC(=O)C=C [1H,1H,5H,5H-Perfluoro-1,5-pentanediol diacrylate]; details: 2200 nM; in DMSO
Method: (§1)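 BioMAP Diversity Plus panel of 12 human primary cell co-culture systems (3C, 4H, LPS, SAg, BT, BF4T, BE3C, CASM3C, HDF3CGF, KF3CT, MyoF, Mphg). Compounds were added 1 h before stimulation and left for 24 h (MyoF 48 h; BT 72 h for soluble read-outs or 6 d for IgG). Biomarkers were read by ELISA, cytotoxicity by SRB, PBMC viability and proliferation by Alamar Blue. Each well value was divided by the mean of 8 DMSO control wells on the same plate and log10 transformed; duplicate blinded samples were tested at 4 concentrations.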

[2] = compound: OCCCC(F)(F)C(F)(F)C(F)(F)C(F)(F)C(F)(F)C(F)(F)C(F)(F)F [7:3 Fluorotelomer alcohol]; details: 2200 nM; in DMSO
Method: as §1

[3] = compound: O=S(=O)(O)C(F)(F)C(F)(F)C(F)(F)C(F)(F)C(F)(F)C(F)(F)F [Perfluorohexanesulfonic acid]; details: 2200 nM; in DMSO
Method: as §1

[4] = compound: O=C(O)C(F)(F)C(F)(F)C(F)(F)C(F)(F)C(F)(F)C(F)(F)C(F)(F)C(F)(F)C(F)(F)C(F)(F)C(F)(F)C(F)(F)C(F)(F)F [Perfluorotetradecanoic acid]; details: in DMSO
Method: as §1

[5] = compound: C=CC(=O)OCCC(F)(F)C(F)(F)C(F)(F)C(F)(F)F [2-(Perfluorobutyl)ethyl acrylate]; details: 2200 nM; in DMSO
Method: as §1

[6] = compound: O=C(Cl)C(F)(F)C(F)(F)C(F)(F)C(=O)Cl [Hexafluoroglutaryl chloride]; details: 2200 nM; in DMSO
Method: as §1

[7] = compound: O=C(O)C=C(C(F)(F)F)C(F)(F)F [3,3-Bis(trifluoromethyl)-2-propenoic acid]; details: in DMSO
Method: as §1

[8] = compound: O=S(=O)(O)CCC(F)(F)C(F)(F)C(F)(F)C(F)(F)F [4:2 Fluorotelomer sulfonic acid]; details: 2200 nM; in DMSO
Method: as §1

[9] = compound: FC(F)(F)C(F)(F)C(F)(F)C(F)(F)C(F)(F)C(F)(F)I [Perfluoro-1-iodohexane]; details: in DMSO
Method: as §1

[10] = compound: FC(F)(F)C(F)(C(F)(F)F)C(F)(F)C(F)(F)CC1CO1 [3-(Perfluoro-3-methylbutyl)-1,2-propenoxide]; details: in DMSO
Method: as §1

[11] = compound: OCC(F)(F)C(F)(F)C(F)(F)CO [Hexafluoroamylene glycol]; details: 2200 nM; in DMSO
Method: as §1

[12] = compound: FC(F)(I)C(F)(F)C(F)(F)C(F)(F)C(F)(F)C(F)(F)I [1,6-Diiodoperfluorohexane]; details: 2200 nM; in DMSO
Method: as §1

[13] = compound: C=CC(=O)OCCC(F)(F)C(F)(F)C(F)(F)C(F)(F)C(F)(F)C(F)(F)C(F)(F)C(F)(F)F [8:2 Fluorotelomer acrylate]; details: 2200 nM; in DMSO
Method: as §1

Row | Test System | level (log10) [1] | level (log10) [2] | level (log10) [3] | level (log10) ([4]; 740 nM) | level (log10) ([4]; 2200 nM) | level (log10) [5] | level (log10) [6] | level (log10) ([7]; 2200 nM) | level (log10) ([7]; 6700 nM) | level (log10) ([7]; 20000 nM) | level (log10) ([7]; 60000 nM) | level (log10) [8] | level (log10) ([9]; 2200 nM) | level (log10) ([9]; 6700 nM) | level (log10) ([9]; 20000 nM) | level (log10) ([9]; 60000 nM) | level (log10) ([10]; 740 nM) | level (log10) ([10]; 2200 nM) | level (log10) [11] | level (log10) [12] | level (log10) [13]
1 | BE3C:MMP-9 | 0.011 ± 0.0028 | -0.0245 ± 0.032 | -0.003 ± 0.02 | -0.0105 ± 0.023 | 0.001 ± 0.057 | 0.0155 ± 0.016 | 0.016 ± 0.016 | -0.017 ± 0.04 | -0.0425 ± 0.005 | -0.0735 ± 0.0021 | -0.079 ± 0.027 | -0.002 ± 0.024 | -0.0045 ± 0.013 | 0.0075 ± 0.0092 | 0.013 ± 0.0028 | 0.001 ± 0.023 | 0.008 ± 0.044 | -0.0035 ± 0.022 | 0.004 ± 0.0014 | -0.023 ± 0.027 | -0.0195 ± 0.036
2 | LPS:CD62E/E-Selectin | 0.017 ± 0.0028 | 0.0075 ± 0.0064 | -0.0065 ± 0.025 | 0.017 ± 0.0057 | 0.011 ± 0.018 | 0.0225 ± 0.044 | 0.0205 ± 0.0021 | -0.012 ± 0.0028 | -0.013 ± 0.021 | -0.025 ± 0.0071 | -0.0345 ± 0.005 | 0.017 ± 0.042 | 0.0035 ± 0.021 | -0.0115 ± 0.0035 | -0.0175 ± 0.011 | 0.015 ± 0.023 | 0.0065 ± 0.032 | 0.015 ± 0.011 | 0.018 ± 0.067 | -0.017 ± 0.028 | 0.006 ± 0.041
3 | LPS:sPGE2 | -0.02 ± 0.0042 | 0.019 ± 0.0028 | -0.0115 ± 0.012 | -0.0045 ± 0.049 | 0.0585 ± 0.11 | -0.0715 ± 0.018 | 0.006 ± 0.033 | -0.092 ± 0.018 | -0.0855 ± 0.016 | -0.09 ± 0.021 | -0.106 ± 0.016 | 0.0025 ± 0.022 | -0.02 ± 0.0071 | 0.0235 ± 0.0092 | 0.0015 ± 0.00071 | -0.038 ± 0.018 | -0.0125 ± 0.026 | -0.009 ± 0.069 | -0.013 ± 0.02 | 0.004 ± 0.0042 | -0.0485 ± 0.056
4 | HDF3CGF:TIMP-2 | -0.142 ± 0.086 | -0.0335 ± 0.019 | -0.0105 ± 0.026 | 0.0275 ± 0.043 | 0.05 ± 0.016 | -0.0225 ± 0.036 | -0.0555 ± 0.0092 | -0.023 ± 0.018 | -0.0175 ± 0.013 | -0.0595 ± 0.028 | -0.082 ± 0.03 | 0.0125 ± 0.06 | -0.011 ± 0.035 | 0.017 ± 0.038 | 0.0295 ± 0.018 | 0.031 ± 0.045 | -0.0495 ± 0.028 | -0.0295 ± 0.081 | 0.0255 ± 0.076 | -0.0065 ± 0.0078 | -0.0545 ± 0.094
5 | KF3CT:SRB | -0.0025 ± 0.012 | 0.0055 ± 0.0078 | 0.0105 ± 0.03 | 0.0015 ± 0.005 | -0.0035 ± 0.00071 | -0.004 ± 0.0057 | 0.0085 ± 0.005 | 0.001 ± 0.013 | -0.0015 ± 0.0021 | 0.003 | 0.024 ± 0.0071 | -0.0005 ± 0.0035 | 0.005 ± 0.014 | -0.0075 ± 0.00071 | -0.0065 ± 0.00071 | 0 ± 0.011 | -0.0075 ± 0.0035 | -0.01 ± 0.0057 | -0.0035 ± 0.0078 | -0.0175 ± 0.0092 | 0.005 ± 0.0085
6 | BE3C:CXCL8/IL-8 | 0.0165 ± 0.012 | 0.013 ± 0.069 | 0.0205 ± 0.019 | 0.015 ± 0.025 | 0.0225 ± 0.016 | 0.0355 ± 0.047 | 0.047 ± 0.018 | 0.0295 ± 0.052 | -0.016 ± 0.0042 | -0.026 ± 0.0085 | -0.0075 ± 0.04 | 0.0115 ± 0.04 | 0.01 ± 0.025 | 0.011 ± 0.033 | 0.021 ± 0.028 | 0.052 ± 0.033 | 0.041 ± 0.095 | 0.0135 ± 0.0064 | -0.0015 ± 0.011 | 0.021 ± 0.065 | 0.008 ± 0.079
7 | BF4T:Keratin 8/18 | -0.017 ± 0.021 | -0.002 ± 0.011 | 0.013 ± 0.0085 | 0.0045 ± 0.015 | -0.0025 ± 0.00071 | -0.0135 ± 0.088 | 0.009 ± 0.021 | 0.019 ± 0.02 | -0.012 ± 0.0085 | -0.012 ± 0.0028 | 0.007 ± 0.014 | 0.014 ± 0.023 | 0.009 ± 0.011 | -0.0075 ± 0.067 | -0.023 ± 0.016 | -0.015 ± 0.088 | 0.0175 ± 0.0021 | 0.015 ± 0.011 | 0.007 ± 0.041 | 0.0045 ± 0.019 | 0.009 ± 0.016
8 | BF4T:CCL2/MCP-1 | -0.0055 ± 0.032 | 0.0375 ± 0.0035 | 0.004 ± 0.038 | 0.013 ± 0.031 | 0.0175 ± 0.015 | 0.0155 ± 0.026 | -0.0135 ± 0.037 | 0 ± 0.045 | 0.0005 ± 0.0021 | -0.052 ± 0.031 | -0.0635 ± 0.0064 | 0.0155 ± 0.056 | 0.014 ± 0.03 | -0.002 ± 0.025 | -0.024 ± 0.025 | -0.0315 ± 0.028 | 0.0205 ± 0.042 | 0.0145 ± 0.013 | 0.0505 ± 0.054 | 0.0135 ± 0.0064 | -0.0085 ± 0.00071
9 | 3C:HLA-DR | 0.0025 ± 0.029 | 0.0005 ± 0.005 | -0.018 ± 0.064 | 0.022 ± 0.0028 | 0.0075 ± 0.016 | 0.02 ± 0.017 | 0.001 ± 0.013 | 0.0025 ± 0.011 | -0.012 ± 0.014 | -0.0415 ± 0.039 | -0.189 ± 0.031 | -0.01 ± 0.021 | 0.005 ± 0.014 | 0.0025 ± 0.0035 | -0.011 ± 0.0057 | -0.001 ± 0.017 | 0.0135 ± 0.023 | 0.029 ± 0.0085 | -0.015 ± 0.016 | -0.006 ± 0.0071 | 0.015 ± 0.028
10 | HDF3CGF:TIMP-1 | -0.155 ± 0.096 | -0.0285 ± 0.0078 | 0.007 ± 0.048 | 0.023 ± 0.045 | 0.018 ± 0.079 | -0.021 ± 0.048 | 0.0075 ± 0.03 | -0.0655 ± 0.074 | -0.0935 ± 0.049 | -0.125 ± 0.065 | -0.0675 ± 0.013 | 0.0075 ± 0.028 | -0.0155 ± 0.016 | -0.014 ± 0.021 | -0.017 ± 0.025 | -0.0385 ± 0.016 | 0.0055 ± 0.04 | 0.004 ± 0.011 | -0.0225 ± 0.063 | 0.026 ± 0.018 | -0.0035 ± 0.022
11 | 3C:CD54/ICAM-1 | 0.0005 ± 0.0035 | 0.0075 ± 0.015 | -0.01 ± 0.018 | 0.013 ± 0.0028 | 0.003 ± 0.0014 | 0.004 ± 0.023 | 0.012 ± 0.0071 | 0.002 ± 0.011 | -0.002 ± 0.0071 | -0.018 ± 0.0071 | -0.0095 ± 0.018 | 0.013 ± 0.0028 | 0.014 ± 0.028 | 0 ± 0.0057 | 0.0025 ± 0.0078 | 0.012 ± 0.0014 | -0.004 ± 0.016 | -0.009 ± 0.013 | -0.0065 ± 0.012 | 0.014 ± 0.034 | -0.0135 ± 0.05
12 | LPS:sTNF-alpha | 0.003 ± 0.013 | -0.0165 ± 0.054 | 0.008 ± 0.0042 | -0.011 ± 0.0028 | -0.016 ± 0.011 | -0.0105 ± 0.021 | 0.0465 ± 0.087 | -0.0045 ± 0.013 | -0.0305 ± 0.042 | 0.0195 ± 0.023 | -0.0025 ± 0.035 | -0.0085 ± 0.012 | -0.005 ± 0.011 | 0.0005 ± 0.022 | -0.008 ± 0.016 | 0.0075 ± 0.029 | -0.0055 ± 0.00071 | -0.006 ± 0.0057 | -0.008 ± 0.03 | -0.013 ± 0.034 | -0.019 ± 0.054

Only level (log10) ([7]; 20000 nM) (2 entries from above):
Row | Test System | level (log10) ([7]; 20000 nM)
10 | HDF3CGF:TIMP-1 | -0.125 ± 0.065
12 | LPS:sTNF-alpha | 0.0195 ± 0.023
